{"sequences": {"note": "The chains behind the UniProt entries cited, without tags or fusion partners. Where a name states a change or a piece, a line headed by the entry shows the natural chain unless it says otherwise.", "UniProt P33895": "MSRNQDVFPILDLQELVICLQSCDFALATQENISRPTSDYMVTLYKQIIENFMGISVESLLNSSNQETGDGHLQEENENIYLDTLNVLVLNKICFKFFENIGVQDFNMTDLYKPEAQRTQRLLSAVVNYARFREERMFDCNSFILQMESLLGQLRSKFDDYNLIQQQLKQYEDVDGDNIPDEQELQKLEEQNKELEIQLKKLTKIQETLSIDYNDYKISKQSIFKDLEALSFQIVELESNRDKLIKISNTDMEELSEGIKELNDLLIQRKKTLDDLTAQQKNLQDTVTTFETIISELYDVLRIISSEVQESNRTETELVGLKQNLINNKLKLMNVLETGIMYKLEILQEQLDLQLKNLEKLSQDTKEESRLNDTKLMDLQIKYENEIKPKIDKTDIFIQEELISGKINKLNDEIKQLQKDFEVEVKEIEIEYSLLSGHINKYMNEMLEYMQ"}, "source": "paper PMC11953741", "biological_target": "T1, Dad1-3Flag (Dam1 complex component Dad1) (S. cerevisiae) (UniProt Q12248)", "T1 sequence": "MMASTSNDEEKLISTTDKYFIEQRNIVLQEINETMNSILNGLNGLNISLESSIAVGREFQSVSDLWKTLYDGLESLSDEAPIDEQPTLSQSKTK", "assay": "co-IP; Flag immunoprecipitation of Dad1-3Flag from benzonase-treated yeast extracts (anti-Flag M3DK on Protein G Dynabeads, 3 h at 4 °C, Buffer H/0.15 with 150 mM KCl, pH 8.0), eluted with 3x M3DK peptide, silver-stained SDS-PAGE", "note": "No constants are given. Whether binding was seen depends on the method and setting. Binding seen in cells or lysates may run through a third protein. Binding calls can cover weak binding; strength is not graded here. Sequences can lack the tags named with a protein.", "data": [{"substance": "Nuf2 Q21A-3V5 (S. cerevisiae nuf2^Q21A mutant) (from UniProt P33895)", "values": [{"measurement": "binding", "value": "binds"}]}]}
